Fewer than 10 of roughly 44,000 compounds were called active. The inconclusive results got no clear call from the source; some entries with a clear call stand among them for comparison. Calls follow the shape of the dose curve; as a rule, active = well fitted curve in the direction sought with a large enough effect; inconclusive = small, poorly fitted or top-dose-only effect, or another doubt; inactive = no such curve, though single readings can be large or run the other way. Potencies beside an inconclusive call are fits to weak or partial responses and may not hold up.
Molecular target: Galactokinase (Homo sapiens) (UniProt P51570)
Assay: qHTS Assay for Inhibitors of Human Galactokinase (GALK): NCGC Sytravon Library Screen
Conditions: recombinant GALK, Kinase-Glo ATP luminescence, 1 h; series mostly up to 57.5 µM
Summary of the method: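 Luminescent ATP-depletion readout (Kinase-Glo Plus, 10 min) after 1 h RT reaction of 5 nM GALK, 35 uM ATP, 100 uM galactose, pH 8.0 HEPES buffer. Decreased kinase activity scored as inhibition.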

By UniProt entry, the sequences of proteins in these tests, tags left out. Where a name states a change or a piece, a line headed by the entry shows the natural chain unless it says otherwise.
UniProt P51570: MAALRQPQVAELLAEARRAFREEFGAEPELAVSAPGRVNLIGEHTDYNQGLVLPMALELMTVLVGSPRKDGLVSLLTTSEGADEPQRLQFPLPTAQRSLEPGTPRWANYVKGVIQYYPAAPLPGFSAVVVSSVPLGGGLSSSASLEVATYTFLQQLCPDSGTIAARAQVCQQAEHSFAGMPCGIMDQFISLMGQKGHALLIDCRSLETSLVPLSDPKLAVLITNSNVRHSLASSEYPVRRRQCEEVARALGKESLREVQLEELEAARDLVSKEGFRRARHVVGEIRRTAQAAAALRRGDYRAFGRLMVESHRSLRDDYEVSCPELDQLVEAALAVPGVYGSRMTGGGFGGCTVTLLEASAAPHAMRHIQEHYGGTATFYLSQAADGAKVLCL

Compound | Potency
COc1ccccc1C(=O)OCc1cc(=O)n2nc(-c3cccs3)sc2n1 | inconclusive: 1 µM [inhibitor, full curve, poor fit]
CCn1c(=O)cc(OCC(=O)Nc2ccccc2Cl)c2ccccc21 | inactive
Cc1nn(C)c2c1c(C(F)(F)F)cc(=O)n2CC(=O)NC(C)(C)C | inactive
Cc1ccc(OCC(=O)Nc2ccccc2C(=O)OCc2cc(=O)n3c(C)csc3n2)cc1 | inactive
CCOc1ccccc1N(CC)C(=O)c1cc2c(=O)n(CC)c3ccccc3c2s1 | inactive
O=S(=O)(c1cccc(Cl)c1)c1nnn2c1nc(NC1CCCC1)c1sccc12 | inconclusive: 1.58 µM [inhibitor, full curve, poor fit]
COCCCNc1ncnc2c1nnn2C | inconclusive: 5.01 µM [inhibitor, full curve, poor fit]
CCN(CCCNC(=O)c1cc(Nc2ccc(OC)cc2)nc2ccccc12)c1cccc(C)c1 | inactive
CCOc1ccccc1NC(=O)Cn1c(=O)n(Cc2ccc(OC)cc2)c(=O)c2oc3ccccc3c21 | inconclusive: 0.562 µM [inhibitor, full curve, poor fit]
COc1ccc(-c2cc(C(F)(F)F)n3nc(C)c(-c4ccccc4)c3n2)cc1OC | inconclusive: 39.8 µM [inhibitor, partial curve, poor fit]
Cc1ccc(N2CC(NC(=O)CCCc3ccccc3)CC2=O)cc1 (centres undefined) | inactive
CCOc1ccc(N(C(C)C(=O)Nc2cc(Cl)ccc2OC)S(C)(=O)=O)cc1 (centres undefined) | inconclusive: 1 µM [inhibitor, full curve, poor fit]
Cc1cc(NC(=O)C2CCN(S(=O)(=O)c3ccc4[nH]c(=O)oc4c3)CC2)ccc1Br | inconclusive: 35.5 µM [inhibitor, partial curve, poor fit]
Cc1ccc(Nc2c(-c3ccc(O)cc3)nc3cccc(C)n23)cc1 | inactive
O=C(NCc1ccc(F)cc1)c1ccc2c(O)c(S(=O)(=O)c3ccccc3)c(=O)[nH]c2c1 | inconclusive: 3.55 µM [inhibitor, full curve, poor fit]
CCOc1ccc(CNCc2c(C(=O)O)n(Cc3ccc(C)cc3)c3cc(C)ccc23)cc1 | inconclusive: 0.355 µM [inhibitor, full curve, poor fit]
CCOc1cc(C2c3c(oc4ccccc4c3=O)C(=O)N2Cc2ccc3c(c2)OCO3)ccc1O (centres undefined) | inconclusive: 35.5 µM [inhibitor, partial curve, poor fit]
Cc1[nH]c(=O)[nH]c(=O)c1C1N2CC3(C(C)C)CN1CC(C(C)C)(C2)C3=O (centres undefined) | inconclusive: 39.8 µM [inhibitor, partial curve, poor fit]
CCCOc1ccccc1Cn1c(=O)sc2ccccc21 | inconclusive: 35.5 µM [inhibitor, partial curve, poor fit]
COc1cccc(-c2nnc3n(Cc4ccc(F)cc4)c(=O)c4ccccc4n23)c1 | inconclusive: 0.891 µM [inhibitor, full curve, poor fit]

Given comma-delimited: part of the list above
Compound,Potency
Cc1ccc(OCC(=O)Nc2ccccc2C(=O)OCc2cc(=O)n3c(C)csc3n2)cc1,inactive
CCOc1ccccc1N(CC)C(=O)c1cc2c(=O)n(CC)c3ccccc3c2s1,inactive
O=S(=O)(c1cccc(Cl)c1)c1nnn2c1nc(NC1CCCC1)c1sccc12,"inconclusive: 1.58 µM [inhibitor, full curve, poor fit]"
COCCCNc1ncnc2c1nnn2C,"inconclusive: 5.01 µM [inhibitor, full curve, poor fit]"
CCN(CCCNC(=O)c1cc(Nc2ccc(OC)cc2)nc2ccccc12)c1cccc(C)c1,inactive
CCOc1ccccc1NC(=O)Cn1c(=O)n(Cc2ccc(OC)cc2)c(=O)c2oc3ccccc3c21,"inconclusive: 0.562 µM [inhibitor, full curve, poor fit]"
COc1ccc(-c2cc(C(F)(F)F)n3nc(C)c(-c4ccccc4)c3n2)cc1OC,"inconclusive: 39.8 µM [inhibitor, partial curve, poor fit]"
Cc1ccc(N2CC(NC(=O)CCCc3ccccc3)CC2=O)cc1 (centres undefined),inactive
CCOc1ccc(N(C(C)C(=O)Nc2cc(Cl)ccc2OC)S(C)(=O)=O)cc1 (centres undefined),"inconclusive: 1 µM [inhibitor, full curve, poor fit]"

Continuation:

Compound | Potency
CCOc1ccccc1-c1nnc(SCc2ccc(Cl)cc2)o1 | inconclusive: 28.2 µM [inhibitor, partial curve, poor fit]
CCOc1cc(CNc2ccc(O)cc2)cc(Br)c1OCc1ccccc1 | inconclusive: 39.8 µM [inhibitor, partial curve, poor fit]
CCc1ccc(CNC(=O)Cc2ccc(NC(=O)N3CCSc4ncccc43)cc2)cc1 | inconclusive: 1.12 µM [inhibitor, full curve, poor fit]
CCOc1ccc(CNC(=O)C2CCN(c3nnc(-n4cccc4CNc4ccc(C)cc4)s3)CC2)cc1OC | inactive
Cc1ccc(C)c(NC(=O)c2ccc3c(O)c(S(=O)(=O)c4ccc(Cl)cc4)c(=O)[nH]c3c2)c1 | inconclusive: 0.708 µM [inhibitor, partial curve, poor fit]
Cc1ccc(Cl)cc1NC(=O)COC(=O)CC(C)(C)CC1=NS(=O)(=O)c2ccccc2N1 | inactive
Cc1ccc(N(Cc2cccs2)C(=O)c2ccco2)cc1 | inconclusive: 1.12 µM [inhibitor, full curve, poor fit]
COc1ccc(C(=O)NCC(c2cccnc2)N2CCN(c3ccccc3OC)CC2)cc1 (centres undefined) | inactive
Cc1c(C(=O)NCCc2ccc(Cl)cc2)cccc1-n1cnc2cccnc21 | inconclusive: 1 µM [inhibitor, full curve, poor fit]
Cc1ccc(NC(=O)C(=O)NCC(c2cccnc2)N2CCN(C)CC2)cc1 (centres undefined) | inconclusive: 3.55 µM [inhibitor, full curve, poor fit]
O=C(CCCn1c(=O)c2cccn2c2cccnc21)Nc1ccccc1C(F)(F)F | inconclusive: 0.794 µM [inhibitor, full curve, poor fit]
O=c1c2oc3ccccc3c2n(Cc2ccc(Cl)cc2)c(=O)n1Cc1ccc2c(c1)OCO2 | inconclusive: 1.58 µM [inhibitor, full curve, poor fit]
O=C(c1ccc2c(c1)CCN2S(=O)(=O)c1ccc(Cl)cc1)N1CCN(c2ccccc2F)CC1 | inconclusive: 35.5 µM [inhibitor, partial curve, poor fit]
COc1ccc(C)c2sc(NC(=O)c3ccc(S(=O)(=O)N4CCOCC4)cc3)nc12 | inconclusive: 4.47 µM [inhibitor, full curve, poor fit]
CCN(c1cccc(C)c1)C(CNS(=O)(=O)c1ccccc1)c1ccccc1 (centres undefined) | inconclusive: 44.7 µM [inhibitor, partial curve, poor fit]
COc1ccc(CCNC(=O)C(C)n2nc(C)c3sc4ccccc4c3c2=O)cc1OC (centres undefined) | inactive
Cc1ccn2c(=O)cc(COc3ccc(NC(=O)COc4ccccc4)cc3)nc2c1 | inconclusive: 5.01 µM [inhibitor, full curve, poor fit]
O=C(Nc1cccc(OCc2cc(=O)n3ccccc3n2)c1)c1ccccc1Br | inconclusive: 8.91 µM [inhibitor, full curve, poor fit]
Cc1ccc2nc(-c3ccc(Cl)s3)c(Nc3ccc4c(c3)OCCO4)n2c1 | inactive

Source: PubChem BioAssay AID1347072 (National Center for Advancing Translational Sciences (NCATS), 2019)
